PMC10576120
Positions count from the first letter of the chain named. Results are given in words; binding and its absence hold for the method and conditions named. Binding seen in cells or lysates may run through a third protein. Binding calls can cover weak binding; strength is not graded here.

Experiments:
Assay in all cases: cross-linking; in vivo disulfide cross-linking in E. coli coexpressing a PhoQ Cys variant (pBAD33) and a FLAG-MgrB Cys variant (pTrc99A); 0.1 mM Cu-phenanthroline, 10 min, 25 °C, buffer with 1 mM MgSO4; membrane fraction, Western blot with anti-FLAG; efficiency = complex / (complex + MgrB monomer)
[1] = molecular target: T1, PhoQ linker Cys variant, position 186 (E. coli) (UniProt P23837)
T1 sequence: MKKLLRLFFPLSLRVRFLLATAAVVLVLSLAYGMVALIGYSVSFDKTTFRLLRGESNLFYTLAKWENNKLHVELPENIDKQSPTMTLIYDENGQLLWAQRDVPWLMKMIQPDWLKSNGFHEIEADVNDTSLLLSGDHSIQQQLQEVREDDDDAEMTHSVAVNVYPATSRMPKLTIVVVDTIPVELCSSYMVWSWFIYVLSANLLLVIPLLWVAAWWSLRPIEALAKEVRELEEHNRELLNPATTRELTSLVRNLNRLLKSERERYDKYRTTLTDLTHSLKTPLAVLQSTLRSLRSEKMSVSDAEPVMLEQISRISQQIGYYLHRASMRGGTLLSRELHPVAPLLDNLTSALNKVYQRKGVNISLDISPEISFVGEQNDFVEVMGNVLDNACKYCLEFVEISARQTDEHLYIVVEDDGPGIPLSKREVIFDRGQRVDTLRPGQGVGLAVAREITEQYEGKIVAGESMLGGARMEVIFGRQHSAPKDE

[2] = molecular target: T2, PhoQ linker Cys variant, position 184 (E. coli) (UniProt P23837)
T2 sequence: T1 sequence with E184C, C186K

[3] = molecular target: T3, PhoQ linker Cys variant, position 188 (E. coli) (UniProt P23837)
T3 sequence: T1 sequence with C186K, S188C

[4] = molecular target: T4, PhoQ linker Cys variant, position 185 (E. coli) (UniProt P23837)
T4 sequence: T1 sequence with L185C, C186K

[5] = molecular target: T5, PhoQ linker Cys variant, position 187 (E. coli) (UniProt P23837)
T5 sequence: T1 sequence with C186K, S187C

PhoQ 198C (E. coli) = molecular target: T6, PhoQ 198C (E. coli) (UniProt P23837)
T6 sequence: T1 sequence with C186K, V198C

PhoQ 194C (E. coli) = molecular target: T7, PhoQ 194C (E. coli) (UniProt P23837)
T7 sequence: T1 sequence with C186K, W194C

PhoQ 196C (E. coli) = molecular target: T8, PhoQ 196C (E. coli) (UniProt P23837)
T8 sequence: T1 sequence with C186K, I196C

PhoQ Y197C (E. coli) = molecular target: T9, PhoQ Y197C (E. coli) (UniProt P23837)
T9 sequence: T1 sequence with C186K, Y197C

Measured: binding

FLAG-tagged MgrB D31C (from UniProt P64512)
binds: [1] | [2] | [3] | [4] | [5]

FLAG-tagged MgrB Q22C (from UniProt P64512)
binds: PhoQ 198C (E. coli) | PhoQ 194C (E. coli) | PhoQ 196C (E. coli) | PhoQ Y197C (E. coli)
